Measured values taken from article PMC8345109, “Optimization of New Catalytic Topoisomerase II Inhibitors as an Anti-Cancer Therapy” (Cancers, 2021).

By UniProt entry, the sequences of proteins in these tests, tags left out. Where a name states a change or a piece, a line headed by the entry shows the natural chain unless it says otherwise. Residues count along the entry.
UniProt P11388, 431-1193: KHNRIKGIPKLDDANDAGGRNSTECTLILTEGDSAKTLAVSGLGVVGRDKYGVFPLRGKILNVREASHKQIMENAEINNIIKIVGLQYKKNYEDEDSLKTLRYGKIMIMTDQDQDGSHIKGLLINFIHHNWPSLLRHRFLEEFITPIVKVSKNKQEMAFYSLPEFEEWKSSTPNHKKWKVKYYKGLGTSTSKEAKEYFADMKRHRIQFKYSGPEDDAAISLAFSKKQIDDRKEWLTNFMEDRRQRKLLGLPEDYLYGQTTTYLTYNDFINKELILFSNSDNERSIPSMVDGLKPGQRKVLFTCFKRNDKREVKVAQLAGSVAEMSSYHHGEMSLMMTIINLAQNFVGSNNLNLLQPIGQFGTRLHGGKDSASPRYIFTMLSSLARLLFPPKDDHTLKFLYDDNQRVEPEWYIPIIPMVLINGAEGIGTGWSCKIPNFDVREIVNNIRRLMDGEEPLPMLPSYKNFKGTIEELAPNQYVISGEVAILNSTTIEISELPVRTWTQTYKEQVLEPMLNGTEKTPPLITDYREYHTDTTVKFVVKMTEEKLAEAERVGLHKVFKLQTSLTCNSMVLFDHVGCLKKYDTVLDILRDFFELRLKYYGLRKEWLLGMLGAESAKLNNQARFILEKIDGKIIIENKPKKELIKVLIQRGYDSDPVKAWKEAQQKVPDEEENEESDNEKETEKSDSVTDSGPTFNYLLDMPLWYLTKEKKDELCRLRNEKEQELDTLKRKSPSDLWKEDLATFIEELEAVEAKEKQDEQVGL
UniProt Q02880: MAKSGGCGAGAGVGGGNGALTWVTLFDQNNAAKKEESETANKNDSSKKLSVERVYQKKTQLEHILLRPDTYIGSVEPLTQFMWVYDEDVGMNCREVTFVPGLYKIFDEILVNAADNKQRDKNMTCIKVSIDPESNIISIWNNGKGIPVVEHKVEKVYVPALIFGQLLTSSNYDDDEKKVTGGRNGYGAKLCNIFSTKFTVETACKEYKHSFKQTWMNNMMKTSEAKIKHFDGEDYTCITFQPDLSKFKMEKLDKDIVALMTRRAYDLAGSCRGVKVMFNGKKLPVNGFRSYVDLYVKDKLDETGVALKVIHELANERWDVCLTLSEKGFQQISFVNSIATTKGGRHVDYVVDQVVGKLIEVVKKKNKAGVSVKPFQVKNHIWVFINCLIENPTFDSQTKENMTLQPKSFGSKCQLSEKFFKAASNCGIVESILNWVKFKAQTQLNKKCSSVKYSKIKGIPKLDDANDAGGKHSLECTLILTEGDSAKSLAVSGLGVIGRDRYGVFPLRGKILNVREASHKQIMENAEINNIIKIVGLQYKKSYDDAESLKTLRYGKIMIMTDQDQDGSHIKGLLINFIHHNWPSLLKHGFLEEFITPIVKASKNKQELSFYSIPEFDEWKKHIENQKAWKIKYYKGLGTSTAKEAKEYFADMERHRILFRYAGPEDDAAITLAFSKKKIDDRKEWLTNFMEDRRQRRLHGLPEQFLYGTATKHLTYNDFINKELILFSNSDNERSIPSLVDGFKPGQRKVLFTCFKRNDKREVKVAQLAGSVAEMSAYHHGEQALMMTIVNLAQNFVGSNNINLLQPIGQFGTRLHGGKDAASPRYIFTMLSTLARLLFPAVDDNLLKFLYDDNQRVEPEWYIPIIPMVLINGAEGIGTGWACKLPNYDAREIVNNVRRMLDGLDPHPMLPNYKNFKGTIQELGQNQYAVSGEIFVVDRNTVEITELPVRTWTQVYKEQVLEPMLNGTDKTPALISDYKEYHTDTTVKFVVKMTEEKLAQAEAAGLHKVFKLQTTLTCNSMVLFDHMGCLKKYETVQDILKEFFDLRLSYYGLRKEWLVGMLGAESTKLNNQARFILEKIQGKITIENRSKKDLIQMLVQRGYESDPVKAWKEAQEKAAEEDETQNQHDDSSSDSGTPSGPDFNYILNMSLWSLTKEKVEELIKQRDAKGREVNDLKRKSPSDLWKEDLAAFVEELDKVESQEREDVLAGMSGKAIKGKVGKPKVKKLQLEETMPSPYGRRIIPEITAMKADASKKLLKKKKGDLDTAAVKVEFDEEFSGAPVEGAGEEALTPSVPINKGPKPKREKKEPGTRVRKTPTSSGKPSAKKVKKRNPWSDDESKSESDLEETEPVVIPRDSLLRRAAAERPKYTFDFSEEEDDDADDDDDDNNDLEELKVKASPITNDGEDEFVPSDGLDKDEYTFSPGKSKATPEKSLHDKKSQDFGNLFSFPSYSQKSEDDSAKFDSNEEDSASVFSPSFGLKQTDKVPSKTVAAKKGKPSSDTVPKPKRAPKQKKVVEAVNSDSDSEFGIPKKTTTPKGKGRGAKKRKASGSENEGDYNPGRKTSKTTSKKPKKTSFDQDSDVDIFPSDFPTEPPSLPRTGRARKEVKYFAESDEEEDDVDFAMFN

Columns and labels:
[1] = target: TOP2A(431-1193) (Homo sapiens) (UniProt P11388); test: fluorescence polarization; details: 3 mM Mg2+, FP: 20 mM HEPES-NaOH pH 7.4, 2 mM DTT, 3 mM MgCl2, 0.05% NP-40, protease inhibitors, room temperature 20 min, recombinant protein, residues 431-1193, protein details: N-terminal 6xHis (pET28a), label: 3' 6-FAM (Results text says NT474 dye)
[2] = target: TOP2A(431-1193) (Homo sapiens) (UniProt P11388); test: EMSA; details: recombinant protein, residues 431-1193, protein details: N-terminal 6xHis (pET28a)
[3] = target: TOP2B full-length (Homo sapiens) (UniProt Q02880); test: EMSA; details: recombinant protein
[4] = target: TOP2A full-length (Homo sapiens) (UniProt P11388); test: EMSA; details: recombinant protein
[5] = no inhibitor, 300 nM protein, 100 nM DNA

Sequence	binding result ([1]; T60 0.01-200 uM, dose-dependent)	binding result ([1]; T637 0.01-200 uM, dose-dependent)	binding result ([1]; T638 0.01-200 uM, dose-dependent)	binding result ([1]; no inhibitor, 500 nM protein, 1 nM or 2 nM (Methods) DNA)	binding result ([2]; T60, dose-dependent)	binding result ([2]; T637, dose-dependent)	binding result ([2]; T638, dose-dependent, strongest effect)	binding result ([2]; no inhibitor, 2 uM protein, 300 nM DNA)	binding result ([3]; 200 uM T60)	binding result ([3]; 200 uM T637)	binding result ([3]; 200 uM T638)	binding result [3, 5]	binding result ([4]; 200 uM T60)	binding result ([4]; 200 uM T637)	binding result ([4]; 200 uM T638)	binding result [4, 5]
AGCCGAGCTGCAGCTCGGCT (double strand) [5ZRF DNA oligo (FAM)]	binds more weakly	binds more weakly	binds more weakly	binds	–	–	–	–	–	–	–	–	–	–	–	–
AGCCGAGCTGCAGCTCGGCT (double strand) [5ZRF DNA oligo (IRDye700)]	–	–	–	–	binds more weakly	binds more weakly	binds more weakly	binds	binds more weakly	binds more weakly	binds more weakly	binds	binds more weakly	binds more weakly	binds more weakly	binds

Construct, isoform or probe ends are uncertain for at least one entry. A weaker result is weaker than the reference pair of the same experiment. At least one verdict was read from the data and is not stated in words by the source.
